Patent publication CN114349861A
No constants are given. Whether binding was seen depends on the method and setting. Some results given as binding are weak or reduced against the parent protein; the word gives no strength.

Amino acid sequences for entries named in this document (tags omitted). Residues count along the entry.
UniProt Q15116, residues 25-170: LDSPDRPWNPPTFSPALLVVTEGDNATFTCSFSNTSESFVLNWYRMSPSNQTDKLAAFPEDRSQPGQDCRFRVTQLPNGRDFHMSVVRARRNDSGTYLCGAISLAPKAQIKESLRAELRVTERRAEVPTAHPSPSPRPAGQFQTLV

How the values were obtained:
人PD1蛋白 (human) [1] = molecular target: 人PD1蛋白 (human) (UniProt Q15116); assay: phage ELISA; VHH displayed on T7 phage, PD1 extracellular domain coated, compared with wild-type T7 phage
人PD1蛋白 (human) [2] = molecular target: 人PD1蛋白 (human) (UniProt Q15116); assay: ELISA; antigen coated, purified nanobody detected with anti-HA antibody

B1: 抗PD1-VHH1 (VHH)
VHH: QVQLVESGGGSVQAGGSLRLSCAASGYASSSYSMGWFRQAPGKEREAVAGVNRDGSTRYADSVKGRFTISKDNAKNTLYLQMNSLKPEDTAMYYCAADRGWLPRRPDYWGQGTQVTVSS
人PD1蛋白 (human) [1]
  binding: binds
人PD1蛋白 (human) [2]
  binding: binds
